These are yes or no findings as the source states them, for the method shown. In cells and extracts the contact can be indirect. A yes stands for co-enrichment or nearness to the bait. Other partners may have been found. For part of these data: A no says only that the protein was not detected with the bait. Where a sequence is shown, tags or fusion partners need not be part of it. Values belong to the molecule of their own block, whether it stands above or below them.
Columns and labels:
[1] = molecular target: T1, N-terminal FLAG-tagged CycI (Synechocystis PCC 6803) (UniProt P72584); assay: condition: only in the Δycf54 background (no Ycf54); affinity purification with mass spectrometry; N-terminal FLAG-tagged CycI as bait in the Δycf54 Synechocystis background (no Ycf54); FLAG eluates digested with trypsin/Lys-C and analysed by nanoLC-MS/MS; captured proteins quantified relative to the CycI bait
T1 sequence: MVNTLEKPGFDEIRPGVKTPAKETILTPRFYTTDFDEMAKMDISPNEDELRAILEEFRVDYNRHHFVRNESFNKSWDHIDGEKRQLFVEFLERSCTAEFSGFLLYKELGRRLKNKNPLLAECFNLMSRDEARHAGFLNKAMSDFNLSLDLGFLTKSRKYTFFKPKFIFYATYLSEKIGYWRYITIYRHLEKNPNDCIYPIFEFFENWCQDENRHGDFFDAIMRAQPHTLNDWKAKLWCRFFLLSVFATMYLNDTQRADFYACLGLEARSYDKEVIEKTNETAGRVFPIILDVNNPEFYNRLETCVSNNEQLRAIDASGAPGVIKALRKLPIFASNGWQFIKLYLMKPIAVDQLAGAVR

By UniProt entry, the sequences of proteins in these tests, tags left out.
UniProt Q59987: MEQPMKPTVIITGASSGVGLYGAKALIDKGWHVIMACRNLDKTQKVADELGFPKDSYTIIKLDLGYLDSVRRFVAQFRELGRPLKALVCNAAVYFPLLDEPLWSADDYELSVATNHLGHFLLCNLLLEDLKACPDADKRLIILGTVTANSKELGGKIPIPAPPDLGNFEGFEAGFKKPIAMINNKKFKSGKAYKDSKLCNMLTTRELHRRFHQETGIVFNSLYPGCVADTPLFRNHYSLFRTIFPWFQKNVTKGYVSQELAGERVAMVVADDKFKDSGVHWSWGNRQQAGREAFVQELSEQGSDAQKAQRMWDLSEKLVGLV

[2] = molecular target: T1, N-terminal FLAG-tagged CycI (Synechocystis PCC 6803); assay: affinity purification with mass spectrometry; N-terminal FLAG-tagged CycI as bait in the Δycf54 Synechocystis background (no Ycf54); FLAG eluates digested with trypsin/Lys-C and analysed by nanoLC-MS/MS; captured proteins quantified relative to the CycI bait
[3] = molecular target: T1, N-terminal FLAG-tagged CycI (Synechocystis PCC 6803); assay: affinity purification with mass spectrometry; N-terminal FLAG-tagged CycI as bait in the wild-type (WT) Synechocystis background; FLAG eluates digested with trypsin/Lys-C and analysed by nanoLC-MS/MS; captured proteins quantified relative to the CycI bait

binding [1]: no binding
binding [2]: binds weakly
binding [3]: binds
Molecule: 3,8-divinyl (proto)chorophyllide reductase (enzyme)

binding [3]: binds
Molecule: PChlide oxidoreductase (from UniProt Q59987 1-322) (enzyme)

binding [2]: binds weakly
binding [3]: binds
B1: geranylgeranyl reductase (enzyme, UniProt Q55087 1-407)
chain: MVLRVAVVGGGPAGSSAAEILVKAGIETYLFERKLDNAKPCGGAIPLCMVDEFDLPPEIIDRRVRKMKMISPSNIEVNIGQTLKDDEYIGMCRREVLDGFLRERAEKLGTKVINGTVYKLDIPSKDSDPYTLHYADHSVGGTTGEMKILKVDVVIGADGANSRIAKAIDAGDYNYAIAFQERIRLPEDKMAYYDELAEMYVGDDVSPDFYAWVFPKYDHVAVGTGTMKVNKARIKDLQAGIRTRAAKKLEGGEIIKVEAHPIPEHPRPRRVVGRVALVGDAAGTVTKSSGEGIYFAAKSARMCAETIVATSNNGQRVPTEADLKQYIKQWDKRYGATYLVLDILQRVFYRTDATREAFVEMCSDIDVQKLTFDSYLYKTVVPANPLVQMKITAKTIGSLLRGNALAP
